Measured values: the supplement of paper PMC7661543
Differences between knockout arms are mostly noise.

Test system: SKBR3
Assay: relative cell number vs DMSO control (72 h) (% of DMSO); higher = less growth inhibition (more cells)
Procedure: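 QMAP-Seq: a pool of 5 breast cancer cell lines (ZR-75-1, SKBR3, HCC-38, MDA-MB-231, BT-20), each carrying 12 doxycycline-inducible Cas9 sgRNA perturbations (11 knockouts plus non-targeting sgNT), was treated with compounds for 72 h at four 10-fold doses (10 nM-10 uM or 1 nM-1 uM range). Barcodes were amplified and sequenced, and cell number was interpolated from 293T spike-in standard curves. The result is expressed as % of the median of DMSO wells. Two biological replicates.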

COCC[n+]1c2c(n(Cc3cnccn3)c1C)C(=O)c1ccccc1C2=O [YM155]
Conditions | relative cell number
sgRNA knockout: sgATF3, 1 nM | 80.7
sgRNA knockout: sgATF3, 10 nM | 57.2
sgRNA knockout: sgATF3, 100 nM | 4.22
sgRNA knockout: sgATF3, 1000 nM | 7.14
sgRNA knockout: sgATF4, 1 nM | 87.8
sgRNA knockout: sgATF4, 10 nM | 74.6
sgRNA knockout: sgATF4, 100 nM | 14.9
sgRNA knockout: sgATF4, 1000 nM | 8.42
sgRNA knockout: sgATF6, 1 nM | 89.1
sgRNA knockout: sgATF6, 10 nM | 59.1
sgRNA knockout: sgATF6, 100 nM | 9.96
sgRNA knockout: sgATF6, 1000 nM | 3.99
sgRNA knockout: sgATG7, 1 nM | 92.7
sgRNA knockout: sgATG7, 10 nM | 61
sgRNA knockout: sgATG7, 100 nM | 9.21
sgRNA knockout: sgATG7, 1000 nM | 6.62
sgRNA knockout: sgERN1, 1 nM | 109
sgRNA knockout: sgERN1, 10 nM | 56.4
sgRNA knockout: sgERN1, 100 nM | 6.99
sgRNA knockout: sgERN1, 1000 nM | 7.86
sgRNA knockout: sgHSF1, 1 nM | 86.6
sgRNA knockout: sgHSF1, 10 nM | 63.7
sgRNA knockout: sgHSF1, 100 nM | 6.35
sgRNA knockout: sgHSF1, 1000 nM | 5.91
sgRNA knockout: sgHSF2, 1 nM | 102
sgRNA knockout: sgHSF2, 10 nM | 71.9
sgRNA knockout: sgHSF2, 100 nM | 7.73
sgRNA knockout: sgHSF2, 1000 nM | 7.97
sgRNA knockout: sgKEAP1, 1 nM | 75.7
sgRNA knockout: sgKEAP1, 10 nM | 45.4
sgRNA knockout: sgKEAP1, 100 nM | 6.71
sgRNA knockout: sgKEAP1, 1000 nM | 6.66
sgRNA knockout: sgNFE2L2, 1 nM | 96.4
sgRNA knockout: sgNFE2L2, 10 nM | 67.7
sgRNA knockout: sgNFE2L2, 100 nM | 11.5
sgRNA knockout: sgNFE2L2, 1000 nM | 6.77
sgRNA knockout: sgSLC35F2, 1 nM | 82.1
sgRNA knockout: sgSLC35F2, 10 nM | 56.5
sgRNA knockout: sgSLC35F2, 100 nM | 9.46
sgRNA knockout: sgSLC35F2, 1000 nM | 6.98
sgRNA knockout: sgXBP1, 1 nM | 101
sgRNA knockout: sgXBP1, 10 nM | 72.8
sgRNA knockout: sgXBP1, 100 nM | 8.16
sgRNA knockout: sgXBP1, 1000 nM | 5.91

FC(F)c1nc2ccccc2n1-c1nc(N2CCOCC2)nc(N2CCOCC2)n1 [ZSTK474]
Conditions | relative cell number
sgRNA knockout: sgATF3, 10 nM | 80.9
sgRNA knockout: sgATF3, 100 nM | 95.8
sgRNA knockout: sgATF3, 1000 nM | 59.8
sgRNA knockout: sgATF3, 10000 nM | 35.6
sgRNA knockout: sgATF4, 10 nM | 90.5
sgRNA knockout: sgATF4, 100 nM | 108
sgRNA knockout: sgATF4, 1000 nM | 52.8
sgRNA knockout: sgATF4, 10000 nM | 33.9
sgRNA knockout: sgATF6, 10 nM | 88.1
sgRNA knockout: sgATF6, 100 nM | 93.9
sgRNA knockout: sgATF6, 1000 nM | 50.2
sgRNA knockout: sgATF6, 10000 nM | 31.1
sgRNA knockout: sgATG7, 10 nM | 98.7
sgRNA knockout: sgATG7, 100 nM | 93.7
sgRNA knockout: sgATG7, 1000 nM | 52.4
sgRNA knockout: sgATG7, 10000 nM | 45.55
sgRNA knockout: sgERN1, 10 nM | 87.2
sgRNA knockout: sgERN1, 100 nM | 106
sgRNA knockout: sgERN1, 1000 nM | 51.3
sgRNA knockout: sgERN1, 10000 nM | 29.3
sgRNA knockout: sgHSF1, 10 nM | 74.6
sgRNA knockout: sgHSF1, 100 nM | 79.6
sgRNA knockout: sgHSF1, 1000 nM | 45.8
sgRNA knockout: sgHSF1, 10000 nM | 39.4
sgRNA knockout: sgHSF2, 10 nM | 81.4
sgRNA knockout: sgHSF2, 100 nM | 74.5
sgRNA knockout: sgHSF2, 1000 nM | 56.3
sgRNA knockout: sgHSF2, 10000 nM | 30.3
sgRNA knockout: sgKEAP1, 10 nM | 84.8
sgRNA knockout: sgKEAP1, 100 nM | 92.8
sgRNA knockout: sgKEAP1, 1000 nM | 54.4
sgRNA knockout: sgKEAP1, 10000 nM | 39.2
sgRNA knockout: sgNFE2L2, 10 nM | 90.9
sgRNA knockout: sgNFE2L2, 100 nM | 92.2
sgRNA knockout: sgNFE2L2, 1000 nM | 60.4
sgRNA knockout: sgNFE2L2, 10000 nM | 41.7
sgRNA knockout: sgSLC35F2, 10 nM | 93.7
sgRNA knockout: sgSLC35F2, 100 nM | 88.5
sgRNA knockout: sgSLC35F2, 1000 nM | 44
sgRNA knockout: sgSLC35F2, 10000 nM | 29.8
sgRNA knockout: sgXBP1, 10 nM | 96.9
sgRNA knockout: sgXBP1, 100 nM | 106
sgRNA knockout: sgXBP1, 1000 nM | 53.7
sgRNA knockout: sgXBP1, 10000 nM | 43.9

O=c1ncccn1[C@@H]1O[C@H](CO)[C@@H](O)[C@H]1O [Zebularine]
Conditions | relative cell number
sgRNA knockout: sgATF3, 10 nM | 119
sgRNA knockout: sgATF3, 100 nM | 99.1
sgRNA knockout: sgATF3, 1000 nM | 97
sgRNA knockout: sgATF3, 10000 nM | 99.7
sgRNA knockout: sgATF4, 10 nM | 104
sgRNA knockout: sgATF4, 100 nM | 92.6
sgRNA knockout: sgATF4, 1000 nM | 102.3
sgRNA knockout: sgATF4, 10000 nM | 113
sgRNA knockout: sgATF6, 10 nM | 93.3
sgRNA knockout: sgATF6, 100 nM | 98.4
sgRNA knockout: sgATF6, 1000 nM | 98.5
sgRNA knockout: sgATF6, 10000 nM | 88.15
sgRNA knockout: sgATG7, 10 nM | 121
sgRNA knockout: sgATG7, 100 nM | 105
sgRNA knockout: sgATG7, 1000 nM | 78.7
sgRNA knockout: sgATG7, 10000 nM | 108
sgRNA knockout: sgERN1, 10 nM | 125
sgRNA knockout: sgERN1, 100 nM | 109
sgRNA knockout: sgERN1, 1000 nM | 83
sgRNA knockout: sgERN1, 10000 nM | 104
sgRNA knockout: sgHSF1, 10 nM | 107
sgRNA knockout: sgHSF1, 100 nM | 98.4
sgRNA knockout: sgHSF1, 1000 nM | 98.3
sgRNA knockout: sgHSF1, 10000 nM | 106.7
sgRNA knockout: sgHSF2, 10 nM | 129
sgRNA knockout: sgHSF2, 100 nM | 91.6
sgRNA knockout: sgHSF2, 1000 nM | 92.2
sgRNA knockout: sgHSF2, 10000 nM | 121
sgRNA knockout: sgKEAP1, 10 nM | 103
sgRNA knockout: sgKEAP1, 100 nM | 108
sgRNA knockout: sgKEAP1, 1000 nM | 89.5
sgRNA knockout: sgKEAP1, 10000 nM | 124
sgRNA knockout: sgNFE2L2, 10 nM | 119
sgRNA knockout: sgNFE2L2, 100 nM | 105
sgRNA knockout: sgNFE2L2, 1000 nM | 108
sgRNA knockout: sgNFE2L2, 10000 nM | 111
sgRNA knockout: sgSLC35F2, 10 nM | 116
sgRNA knockout: sgSLC35F2, 100 nM | 101
sgRNA knockout: sgSLC35F2, 1000 nM | 82.2
sgRNA knockout: sgSLC35F2, 10000 nM | 84.4
sgRNA knockout: sgXBP1, 10 nM | 106
sgRNA knockout: sgXBP1, 100 nM | 94.3
sgRNA knockout: sgXBP1, 1000 nM | 83.9
sgRNA knockout: sgXBP1, 10000 nM | 97.1
